No constants are given. Whether binding was seen depends on the method and setting. Some entries that bind do so weakly or less than the wild type.
How the values were obtained:
Assay in all cases: flow cytometry, 100 nM antibody, transiently transfected HEK cells, APC anti-human Fc
[1] = target: T1, HEK-TROP2 Δ27-66 (human, UniProt P09758)
T1 construct: deletion of residues 27-66, transiently expressed on HEK cells
T1 sequence (membrane protein on transfected HEK cells, looked up): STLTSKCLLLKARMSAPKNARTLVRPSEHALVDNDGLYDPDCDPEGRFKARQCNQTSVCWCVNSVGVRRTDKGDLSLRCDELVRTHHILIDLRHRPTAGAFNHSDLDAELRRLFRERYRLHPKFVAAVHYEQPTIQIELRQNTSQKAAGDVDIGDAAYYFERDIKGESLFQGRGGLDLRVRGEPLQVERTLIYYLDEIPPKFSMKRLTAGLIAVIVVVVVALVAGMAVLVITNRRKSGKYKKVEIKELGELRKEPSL
Method: (§1) To determine the effect of TROP2 truncations on the binding ability of anti-TROP2 sdAbs, the HEK parental cells were transiently transfected with human TROP2 mutants by lipofectamine. 24 hours after transfection, cells were collected and stained with anti-TROP2 antibodies (FIG. 13A and FIG. 13B). In brief, 1×10⁵ cells were incubated with an Fc receptor blocking antibody (1/100 dilution) for 10 minutes at room temperature. Anti-TROP2 antibodies were diluted in FACS staining buffer to 100 nM and added and incubated with cells for 30 minutes on ice. After washing three times with FACS staining buffer, APC-conjugated secondary antibodies recognizing the human Fc region (Biolegend, Cat #410712) were mixed with cells. After staining for 30 minutes, cells were washed three times, followed by resuspension into 100 μL of 7-Amino-Actinomycin D (7-AAD) solution (BD Biosciences, Cat #559925).

[2] = target: T2, HEK-TROP2 Δ27-73 (human, UniProt P09758)
T2 construct: deletion of residues 27-73, transiently expressed on HEK cells
T2 sequence (membrane protein on transfected HEK cells, looked up): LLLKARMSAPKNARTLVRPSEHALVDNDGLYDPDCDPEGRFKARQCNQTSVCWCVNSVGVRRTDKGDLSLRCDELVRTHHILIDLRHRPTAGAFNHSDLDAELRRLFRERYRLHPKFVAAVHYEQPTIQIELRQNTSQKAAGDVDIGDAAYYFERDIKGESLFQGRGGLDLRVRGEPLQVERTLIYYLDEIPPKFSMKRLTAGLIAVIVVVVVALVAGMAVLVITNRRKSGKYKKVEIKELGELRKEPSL
Method: as §1

[3] = target: T3, HEK-TROP2 Δ27-104 (human, UniProt P09758)
T3 sequence (membrane protein on transfected HEK cells, looked up): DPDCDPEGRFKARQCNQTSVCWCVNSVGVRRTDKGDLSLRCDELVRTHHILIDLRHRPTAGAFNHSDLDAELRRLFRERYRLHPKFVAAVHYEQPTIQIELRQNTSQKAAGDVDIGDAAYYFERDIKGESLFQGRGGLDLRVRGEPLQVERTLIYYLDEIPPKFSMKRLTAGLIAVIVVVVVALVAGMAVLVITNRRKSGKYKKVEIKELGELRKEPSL
Method: as §1

[4] = target: T4, HEK-TROP2 Δ27-146 (human, UniProt P09758)
T4 construct: deletion of residues 27-146, transiently expressed on HEK cells
T4 sequence (membrane protein on transfected HEK cells, looked up): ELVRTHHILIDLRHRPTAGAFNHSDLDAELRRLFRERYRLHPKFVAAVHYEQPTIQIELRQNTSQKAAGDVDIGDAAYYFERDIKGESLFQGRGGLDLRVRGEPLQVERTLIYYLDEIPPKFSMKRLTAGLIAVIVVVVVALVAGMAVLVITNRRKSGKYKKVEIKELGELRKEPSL
Method: as §1

[5] = target: T5, HEK-TROP2 Δ27-114 (human, UniProt P09758)
T5 construct: deletion of residues 27-114, transiently expressed on HEK cells
T5 sequence (membrane protein on transfected HEK cells, looked up): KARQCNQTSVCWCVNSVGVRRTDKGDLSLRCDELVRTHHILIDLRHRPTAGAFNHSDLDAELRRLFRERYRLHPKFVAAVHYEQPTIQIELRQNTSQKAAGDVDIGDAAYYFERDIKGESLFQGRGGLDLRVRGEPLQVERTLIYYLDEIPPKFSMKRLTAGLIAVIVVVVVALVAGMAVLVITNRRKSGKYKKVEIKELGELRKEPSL
Method: as §1

[6] = target: T6, HEK-TROP2 Δ27-126 (human, UniProt P09758)
T6 construct: deletion of residues 27-126, transiently expressed on HEK cells
T6 sequence (membrane protein on transfected HEK cells, looked up): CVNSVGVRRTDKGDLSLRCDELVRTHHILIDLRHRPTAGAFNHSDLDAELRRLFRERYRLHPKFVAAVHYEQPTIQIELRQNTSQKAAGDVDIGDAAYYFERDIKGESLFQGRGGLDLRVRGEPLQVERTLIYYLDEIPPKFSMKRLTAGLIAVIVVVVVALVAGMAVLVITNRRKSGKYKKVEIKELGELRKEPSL
Method: as §1

[7] = target: T7, HEK-TROP2 Δ27-85 (human, UniProt P09758)
T7 construct: deletion of residues 27-85, transiently expressed on HEK cells
T7 sequence (membrane protein on transfected HEK cells, looked up): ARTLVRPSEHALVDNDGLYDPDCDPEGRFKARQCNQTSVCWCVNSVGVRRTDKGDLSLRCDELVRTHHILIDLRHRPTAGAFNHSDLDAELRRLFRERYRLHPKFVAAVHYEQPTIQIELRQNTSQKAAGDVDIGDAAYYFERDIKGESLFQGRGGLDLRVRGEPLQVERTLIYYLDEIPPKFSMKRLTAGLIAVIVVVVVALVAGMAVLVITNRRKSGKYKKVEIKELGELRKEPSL
Method: as §1

[8] = target: T8, HEK-TROP2 Δ27-96 (human, UniProt P09758)
T8 construct: deletion of residues 27-96, transiently expressed on HEK cells
T8 sequence (membrane protein on transfected HEK cells, looked up): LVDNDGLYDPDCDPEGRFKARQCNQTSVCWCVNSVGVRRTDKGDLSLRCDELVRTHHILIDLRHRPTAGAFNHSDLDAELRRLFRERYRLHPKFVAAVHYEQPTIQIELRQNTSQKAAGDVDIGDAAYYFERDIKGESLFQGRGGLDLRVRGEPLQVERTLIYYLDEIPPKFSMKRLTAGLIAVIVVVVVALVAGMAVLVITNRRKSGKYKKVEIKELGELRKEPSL
Method: as §1

Measured: binding

B1: KD006 (antibody, human IgG1, V domains shown)
VH: QVQLQESGGGLVQAGNSLRLSCVASVRTFSTKAMGWFRQAPGKEREFTAAISESGSTYYADSVKDRFTISRDNVKNTVYLQMNSLKPEDTAVYYCGVKWYSGSFDDTRSYDYWGQGTQVTVSS
notes: also called anti-TROP2 sdAb KD006
binds: all assays above

From US20240360242A1 (KISOJI BIOTECHNOLOGY, published 2024)
